Results deposited as PubChem BioAssay AID504793 (Drosophila RNAi Screening Center, 2011).

Purpose: 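Genes required for cells to halt at G2/M after double-strand DNA breaks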 (primary screen)
System: Drosophila S2R+ cells
Reagent: long dsRNA against Drosophila genes, about 0.25 µg dsRNA per well
Duration: 4 days of dsRNA, then 4 hours of drug before read-out
Challenge: doxorubicin 0.5 µM for 4 hours to cause double-strand breaks, in cells also given a low, harmless dose of dsRNA against nbs to sensitise the assay
Measurement: 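Mitotic index as the number of phospho-histone H3-positive cells in each well following doxorubicin, given as raw counts without normalisation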
Scale: mitotic cells: higher = more cells in mitosis, weaker G2 arrest
Rule for the call: 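Genes are called active only when high mitotic counts were reproduced with independent dsRNAs and mitosis was checked for delay without damage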
Meaning of the calls: active = confirmed in follow-up tests; inactive = not confirmed
The screen tested about 23,000 reagents; this is a random part of those that have a named target and a result. Of all reagents, 62 (0.27%) were called active. 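Calls come from follow-up tests whose scores are not deposited, so confirmed genes may have low counts here; counts are not normalised per plate.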 Raw values are not corrected between plates.

PGRP-SC1b [DRSC07215]: mitotic cells, replicate 1 = 5; call = inactive
P5CDh1 [DRSC11801]: mitotic cells, replicate 1 = 4; call = inactive
CG9391 [DRSC11858]: mitotic cells, replicate 1 = 4; call = inactive
ocm [DRSC04360]: mitotic cells, replicate 1 = 24; call = inactive
ocm [DRSC26248]: mitotic cells, replicate 1 = 11; call = inactive
CG33259 [DRSC10854]: mitotic cells, replicate 1 = 5; call = inactive
CG33259 [DRSC29910]: mitotic cells, replicate 1 = 9; call = inactive
CG30412 [DRSC04564]: mitotic cells, replicate 1 = 6; mitotic cells, replicate 2 = 4; call = inactive
CG30412 [DRSC25522]: mitotic cells, replicate 1 = 6; call = inactive
Inx2 [DRSC18783]: mitotic cells, replicate 1 = 3; call = inactive
Inx2 [DRSC24455]: mitotic cells, replicate 1 = 10; call = inactive
BORCS5 [DRSC19427]: mitotic cells, replicate 1 = 8; call = inactive
BORCS5 [DRSC26187]: mitotic cells, replicate 1 = 7; call = inactive
CG42540 [DRSC08328]: mitotic cells, replicate 1 = 2; call = inactive
CG42540 [DRSC23011]: mitotic cells, replicate 1 = 12; call = inactive
CG42540 [DRSC25814]: mitotic cells, replicate 1 = 8; call = inactive
CG42540 [DRSC28858]: mitotic cells, replicate 1 = 11; call = inactive
